These results are taken from US20230286955A1, “INHIBITORS OF THEM1” (Cornell University, priority 2022, published 2023).

Chains of the proteins cited; added tags and fusions are not shown. Lines headed by an entry give the natural chain unless they say otherwise; changes in a name come on top. Residues count along the entry.
UniProt Q8WXI4, 14-594 isoform 2 limits assumed: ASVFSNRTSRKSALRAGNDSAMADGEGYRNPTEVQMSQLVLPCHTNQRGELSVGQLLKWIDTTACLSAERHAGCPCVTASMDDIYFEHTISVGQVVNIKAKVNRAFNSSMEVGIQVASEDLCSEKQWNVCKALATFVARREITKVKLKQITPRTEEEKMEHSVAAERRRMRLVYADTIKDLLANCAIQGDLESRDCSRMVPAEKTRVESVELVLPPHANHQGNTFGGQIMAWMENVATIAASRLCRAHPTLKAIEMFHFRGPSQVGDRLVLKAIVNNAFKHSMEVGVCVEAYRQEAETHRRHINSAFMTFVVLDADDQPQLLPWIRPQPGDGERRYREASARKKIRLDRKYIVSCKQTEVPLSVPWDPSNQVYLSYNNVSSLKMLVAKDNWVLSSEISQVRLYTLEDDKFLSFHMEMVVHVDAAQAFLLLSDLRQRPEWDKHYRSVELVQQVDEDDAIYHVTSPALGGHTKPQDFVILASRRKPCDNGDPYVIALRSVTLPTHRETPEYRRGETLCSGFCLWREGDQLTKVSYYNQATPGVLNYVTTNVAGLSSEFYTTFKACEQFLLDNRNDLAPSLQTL
UniProt Q8WXI4, 339-594 isoform 2 limits assumed: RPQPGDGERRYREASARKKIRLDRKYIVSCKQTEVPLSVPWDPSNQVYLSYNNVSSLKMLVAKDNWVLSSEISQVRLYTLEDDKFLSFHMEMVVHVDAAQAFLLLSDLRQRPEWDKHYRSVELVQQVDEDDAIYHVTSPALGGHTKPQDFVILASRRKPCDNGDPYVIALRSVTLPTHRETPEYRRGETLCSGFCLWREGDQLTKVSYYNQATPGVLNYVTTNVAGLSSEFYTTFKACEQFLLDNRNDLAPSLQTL
UniProt Q8WXI4, 43-329 limits assumed, stated change not applied: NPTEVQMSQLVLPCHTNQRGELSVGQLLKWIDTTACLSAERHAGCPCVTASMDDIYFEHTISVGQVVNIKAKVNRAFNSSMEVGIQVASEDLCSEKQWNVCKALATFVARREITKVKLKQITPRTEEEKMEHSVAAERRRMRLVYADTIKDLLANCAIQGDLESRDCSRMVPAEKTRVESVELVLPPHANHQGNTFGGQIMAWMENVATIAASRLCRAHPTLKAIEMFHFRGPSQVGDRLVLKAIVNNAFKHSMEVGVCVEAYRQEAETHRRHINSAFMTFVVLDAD
UniProt Q8WYK0, whole entry: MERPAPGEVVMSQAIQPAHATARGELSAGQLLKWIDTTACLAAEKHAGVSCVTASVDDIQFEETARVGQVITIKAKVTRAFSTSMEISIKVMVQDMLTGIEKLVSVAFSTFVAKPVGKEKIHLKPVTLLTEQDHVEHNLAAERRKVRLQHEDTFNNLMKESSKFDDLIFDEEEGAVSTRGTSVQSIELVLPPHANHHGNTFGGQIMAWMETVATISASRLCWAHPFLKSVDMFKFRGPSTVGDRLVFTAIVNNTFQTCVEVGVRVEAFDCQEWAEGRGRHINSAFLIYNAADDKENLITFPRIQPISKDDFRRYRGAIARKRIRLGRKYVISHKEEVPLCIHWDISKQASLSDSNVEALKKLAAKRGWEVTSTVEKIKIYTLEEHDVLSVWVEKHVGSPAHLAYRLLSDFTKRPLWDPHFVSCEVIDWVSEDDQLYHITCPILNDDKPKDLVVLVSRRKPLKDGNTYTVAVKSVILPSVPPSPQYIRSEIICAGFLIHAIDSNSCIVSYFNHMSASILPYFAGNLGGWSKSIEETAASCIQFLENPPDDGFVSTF

Data set [1] deals with primary brown adipocytes cultured from A-Them1Tg mice. As to the kind of experiment: Oxygen consumption rates (OCR) in primary brown adipocytes. As to conditions: compounds at their in vitro IC50 concentrations, 30 min, NE 1 μM; vs wild type (DMSO).
A further data set has as its target Them1 START domain (Homo sapiens, UniProt Q8WXI4). Nature of the data set: Microscale thermophoresis binding, START domain. Particulars: for Kd: read-out: Kd, START, MST, 100 nM labeled protein, 22° C., mean (s.e.m.).
A further data set concerns the target full-length human Acot12 (Homo sapiens, UniProt Q8WYK0). Particulars: read-out: Kd, Acot12; MST, 100 nM labeled protein, 22° C.
Another data set deals with recombinant human Them1 (Homo sapiens, UniProt Q8WXI4). Nature of the data set: Acot activity assay (fluorometric, C14-CoA), inhibition of Them1. Particulars: mean with s.e.m., triplicate determinations.
A further data set has as its target full-length Them1 (Homo sapiens, UniProt Q8WXI4). As to the kind of experiment: Microscale thermophoresis binding, full-length Them1. As to conditions: for Kd: read-out: Kd, Them1, MST, 100 nM labeled His-tagged protein, 22° C., mean (s.e.m.).
The target in another data set is Them1-ΔSTART (Homo sapiens, UniProt Q8WXI4). As to the kind of experiment: Microscale thermophoresis binding, Them1-ΔSTART. As to conditions: for Kd: read-out: Kd, Thioesterase domains (Them1-ΔSTART ), MST, 100 nM labeled protein, 22° C.
Data set [2] is described as follows: Critical aggregation concentration by dynamic light scattering. As to conditions: PBS, 22° C.

Molecules are shown by their SMILES. The structures given here were assigned with low confidence; some may be wrong.

For `CCOC(=O)N1CCN(C(c2cccs2)c2c(C)n(C)c3ccccc23)CC1` (stereo not drawn), the “OCR in A-Them1Tg brown adipocytes, reversal of Them1 suppression” value in data set [1] was “remained suppressed”. Further, the “binding affinity to the START domain compared to the parent U1 compound” value on Them1 START domain (in words) is recorded as “tighter”. Further, the dissociation constant (Kd) was 4.12 µM at Them1 START domain, greater than 125 µM on full-length human Acot12, 3.39 µM on full-length Them1 and greater than 125 µM at Them1-ΔSTART. Moreover, the IC50 on recombinant human Them1 was 8.49 µM. The “Kd / binding affinity to full-length Them1 compared to the parent U1 compound” value at full-length Them1 (in words) was “tighter”. For the same molecule, the “binding to Them1-ΔSTART” value on Them1-ΔSTART (in words) was “did not bind”.
Take `CCOC(=O)N1CCN(C(c2cccs2)c2c(CC)[nH]c3ccccc23)CC1` (stereo not drawn): in data set [1], the “OCR in A-Them1Tg brown adipocytes, reversal of Them1 suppression” value is reported as “remained suppressed”. The Kd at Them1 START domain is 3.56 µM; at full-length human Acot12, greater than 125 µM; on full-length Them1 it was 1.05 µM; at Them1-ΔSTART it was greater than 125 µM. Moreover, the critical aggregation concentration in data set [2] came to 122 µM.
